Results are given as percent effect.
The controls that fix the scale are not given in the record; negative values are as filed.
This is an unselected part of the compounds tested.
A dash means the value is not listed here; it may have been measured.

The chains behind the UniProt entries cited, without tags or fusion partners. Residues count along the entry.
UniProt Q8IDJ8, 1-583: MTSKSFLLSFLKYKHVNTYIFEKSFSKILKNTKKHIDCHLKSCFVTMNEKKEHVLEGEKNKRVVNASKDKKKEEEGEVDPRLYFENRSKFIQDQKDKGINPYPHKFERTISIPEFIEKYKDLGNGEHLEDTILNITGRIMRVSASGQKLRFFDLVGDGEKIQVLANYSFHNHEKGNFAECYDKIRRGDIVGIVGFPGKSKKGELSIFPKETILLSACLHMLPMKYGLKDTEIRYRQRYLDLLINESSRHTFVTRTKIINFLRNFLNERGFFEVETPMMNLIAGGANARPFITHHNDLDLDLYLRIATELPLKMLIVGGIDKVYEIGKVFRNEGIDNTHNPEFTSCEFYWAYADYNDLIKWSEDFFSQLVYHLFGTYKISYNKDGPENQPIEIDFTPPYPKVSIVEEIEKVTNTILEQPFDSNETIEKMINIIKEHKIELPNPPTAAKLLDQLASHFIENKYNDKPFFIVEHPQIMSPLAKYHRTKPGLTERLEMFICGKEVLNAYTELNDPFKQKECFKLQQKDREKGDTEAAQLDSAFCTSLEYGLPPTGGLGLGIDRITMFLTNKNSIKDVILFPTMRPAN
UniProt A4I591, 1-473: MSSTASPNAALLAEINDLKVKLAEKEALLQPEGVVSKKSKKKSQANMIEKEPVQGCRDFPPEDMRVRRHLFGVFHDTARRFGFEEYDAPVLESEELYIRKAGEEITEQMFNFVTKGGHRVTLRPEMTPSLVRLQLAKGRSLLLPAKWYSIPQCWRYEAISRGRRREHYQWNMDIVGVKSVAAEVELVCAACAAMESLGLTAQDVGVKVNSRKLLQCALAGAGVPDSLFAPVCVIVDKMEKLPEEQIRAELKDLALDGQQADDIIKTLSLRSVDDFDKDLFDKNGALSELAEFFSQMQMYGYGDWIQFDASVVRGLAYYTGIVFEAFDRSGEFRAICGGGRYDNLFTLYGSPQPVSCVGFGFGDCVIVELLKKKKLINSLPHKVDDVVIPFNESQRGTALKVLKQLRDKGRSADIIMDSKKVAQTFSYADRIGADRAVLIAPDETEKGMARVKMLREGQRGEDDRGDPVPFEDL

T. brucei: 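Whole-parasite assay of Trypanosoma brucei over 72 hours; the read-out is not stated. Concentration: 30 µM. The record gives no direction; compounds that gave an IC50 in retests scored well above the rest, so higher reads as stronger inhibition. Values scatter widely below zero; nearly all retest evidence comes from the higher of the two concentrations used. About 64,000 compounds were tested under these conditions; 1.5% (about 940) showed 50% or more at least once.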
PfKRS1: 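Lysine-tRNA ligase, Plasmodium falciparum 3D7 (UniProt Q8IDJ8). Enzyme assay of the cytosolic lysyl-tRNA synthetase in 384-well plates, read by luminescence. Compounds at 30 µM. Direction is inferred from only a few compounds that gave an IC50; most scored high, so higher reads as stronger inhibition. About 69,000 compounds were tested under these conditions; 0.071% (about 49) showed 50% or more at least once.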
LiHisRS: 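Enzyme assay of histidyl-tRNA synthetase; the read-out is not stated. Target: Histidine-tRNA ligase, Leishmania infantum (UniProt A4I591). Compounds at 30 µM. The record gives no direction; compounds that gave an IC50 in retests scored well above the rest, so higher reads as stronger inhibition. The assay is labelled LdHisRS but filed under L. infantum. About 69,000 compounds were tested under these conditions; 0.6% (about 410) showed 50% or more at least once.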
Toxoplasma: 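Assay of Toxoplasma gondii numbers, read through their beta-galactosidase reporter with a colour substrate. Tested at 10 µM. Higher reads as fewer parasites (inferred from which compounds were picked for retests). Of about 67,000 compounds tested this way, about 260 (0.38%) reached 50% or more in at least one test.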

| # | compound | T. brucei | PfKRS1 | LiHisRS | Toxoplasma |
|---|---|---|---|---|---|
| 1 | `N[C@H]1CN(CCCOc2ccccc2)C[C@@H]1C1CC1` | 47.52 | 3.445 | 6.452 | -4.669 |
| 2 | `N#Cc1ccsc1N1CCC(Sc2ccncc2)C1=O` (centres unmarked) | -22.65 | 6.894 | 53.06 | 14.58 |
| 3 | `Cn1c(CC(=O)O)c(Sc2ccccc2)c2ccccc21` | -17.57 | 4.738 | -56.04 | -5.072 |
| 4 | `O=C([C@H](O)c1ccccc1)N1CCN(c2cccc(Cl)c2)C(=O)C1` | -6.966 | 1.651 | 13.21 | 0.6734 |
| 5 | `CCn1ncc2c(C(F)F)cc(-c3ccn(C)n3)nc21` | -2.55 | 4.101 | 10.34 | 14.34 |
| 6 | `Cc1ccc(N2CCC3(CC2)COCCN(c2nccs2)C3)nn1.O=C(O)C(F)(F)F.O=C(O)C(F)(F)F` | -12.93 | - | - | -24.36 |
| 7 | `Cc1cc(F)ccc1-n1cc(O)c(C(=O)NCC[S+](C)[O-])n1` (centres unmarked) | -48.47 | 0.0584 | 2.174 | -7.662 |
| 8 | `Cc1ncc(C(=O)NCCNC(=O)c2ccccc2)s1` | -14.27 | 0.1958 | 9.821 | 14.87 |
| 9 | `CN1CC2(CCN(Cc3cccnc3)CC2)c2cccc(F)c21.Cl` | 100.8 | - | - | -7.173 |
| 10 | `CCn1cc(NC(=O)C2CCN(Cc3ccccc3C#N)CC2)cn1` | 18.36 | 2.468 | 18.92 | -0.3937 |
| 11 | `Cc1cc2c(N)nc(=O)n(CC(=O)Nc3cccc(Cl)c3)c2s1` | 0.1221 | 3.7 | 3.261 | 7.412 |
| 12 | `Cc1nccn1CCCC(=O)Nc1nc(C(C)C)nn1C` | -33.48 | 1.673 | -3.03 | 4.099 |
| 13 | `NC(=O)C1CCN(C(=O)c2cc(-n3cnnn3)ccc2Cl)CC1` | -7.23 | 2.431 | 20 | -21.19 |
| 14 | `N#Cc1cccc(N2CCCC3(C2)CN(c2ncc(F)cn2)CCO3)n1.O=C(O)C(F)(F)F` (centres unmarked) | -34.51 | - | - | -1.78 |
| 15 | `Cl.Cl.FC(F)(F)c1cccc(-c2c[nH]c(C3CCCN3)n2)c1` (centres unmarked) | -17.99 | - | - | -0.2157 |
| 16 | `COc1ccc(CCNC(=O)CC(NC(N)=O)c2ccccc2)cc1` (centres unmarked) | -39.58 | 2.707 | -34.41 | -4.037 |
| 17 | `N#CCCN(c1ccccc1)S(=O)(=O)CC1CCCCO1` (centres unmarked) | -35.59 | 0.1896 | 10 | 9.029 |
| 18 | `CN(C)C(=O)CN1C[C@@H]2CC[C@H](C1)N(C(=O)CCCn1cncn1)C2` | - | 3.014 | 14.75 | - |
| 19 | `COCc1cncc2c1CCN(C(=O)c1cccc(C#N)c1)C2.O=C(O)C(F)(F)F` | -81.12 | - | - | -12.57 |
| 20 | `CC(C)(CNC(=O)CCCOc1cccc(F)c1)C(N)=O` | - | 0.6137 | 11.01 | 2.319 |
| 21 | `CCc1ncc(C(=O)N2CCN(c3cnn(C)c(=O)c3)CC2)cn1` | -68.94 | 2.701 | 9.6 | 1.437 |
| 22 | `CCC(=O)N1CCN(C(=O)Nc2cccc(N3CCOCC3)c2)CC1` | -25.71 | -0.5932 | 12.9 | -1.329 |
| 23 | `O=C(O)c1ccn(-c2ccccc2NC(=O)c2ccccc2Cl)n1` | -7.548 | 7.814 | 12 | 3.79 |
| 24 | `N#Cc1ccc(C(=O)N2CCCC3(C=Cc4ccccc4O3)CC2)cn1` (centres unmarked) | -53.24 | -4.442 | 40.62 | -7.372 |
| 25 | `Cc1nc(O)cc(C2CCN(Cc3ccc(F)c(F)c3)C2)n1` (centres unmarked) | - | 5.719 | 15.94 | - |
| 26 | `CC(=O)NC[C@@H]1C=C(C)[C@H](CC(=O)NCc2cccnc2)C[C@H]1C(C)C` | -29.47 | -0.8195 | 30.56 | 4.762 |
| 27 | `COc1cc(C(=O)NCCCO)cc2occc12` | -25.47 | 2.961 | 14.29 | 15.96 |
| 28 | `Cn1cc(C2COC3(CCN(C(=O)c4cccc(O)c4)CC3)C2)cn1` (centres unmarked) | -767 | 3.448 | 22 | -23.13 |
| 29 | `Cc1ncccc1NC(=O)[C@@H]1CC[C@@H]2[C@@H](CCN2Cc2cnn(C)c2)O1` | - | 6.141 | 17.81 | - |
| 30 | `CN(C(=O)CNCCn1cccn1)C1(C#N)CCCCC1` | -18.36 | -1.451 | 9.091 | -37.7 |
| 31 | `O=C(O)C(F)(F)F.[H][C@]12CC[C@@]3(N=C(C)N(CC(C)C)C3=O)[C@@]1([H])CNC2` | - | - | - | 0.3765 |
| 32 | `CN1CCN(S(=O)(=O)c2cccc(F)c2)c2ccccc21` | -14.29 | 1.91 | 13.16 | 13.22 |
| 33 | `CC(C)C(C(=O)N(C)C)c1cccc(Cl)c1` (centres unmarked) | -8.084 | 1.601 | 0 | -8.625 |
| 34 | `CC(=O)Nc1ccc(CNCC(O)c2ccc(C)cc2)cc1` (centres unmarked) | 42.33 | 8.806 | 24.11 | 5.233 |
| 35 | `CC(=O)N1CCN(CCNS(=O)(=O)c2ccc(C)c(F)c2)CC1` | 1.343 | 2.612 | 22.86 | -3.469 |
| 36 | `O=S1(=O)CCC(n2nc(Cc3cccs3)nc2-c2cnccn2)C1` (centres unmarked) | -12.78 | 1.802 | 10.4 | 1.298 |
| 37 | `CC(C)NC(=O)N1CC[C@@H](N(C)C)[C@@H]1Cc1ccncc1.O=C(O)C(F)(F)F.O=C(O)C(F)(F)F` | -6.665 | - | - | 3.108 |
| 38 | `[H][C@@]12COC[C@]1([H])[C@H](NC(=O)C1CCC1)CN2Cc1cccc(C)n1` | -31.87 | - | - | 10.38 |
| 39 | `O=C1CCC(c2nc(C3CCN(C(=O)Cc4cccs4)CC3)no2)N1` (centres unmarked) | -10.85 | 1.128 | 5.369 | -7.358 |
| 40 | `CCc1cc(C(=O)N2CCCC2c2nc(O)cc(CC)n2)on1` (centres unmarked) | -12.63 | 3.143 | 0 | 2.814 |
| 41 | `Cc1ccc2c(ccn2CC(=O)NC[C@@H]2CCCN3CCCC[C@H]23)c1` | - | 3.673 | 21.36 | - |
| 42 | `CC(C)N1CCc2c(c(COc3cccnc3)nn2CC2CC2)C1.O=C(O)C(F)(F)F.O=C(O)C(F)(F)F.O=C(O)C(F)(F)F` | -24.8 | - | - | -0.7559 |
| 43 | `O=C(Cc1ccc2c(c1)OCO2)N[C@@H]1CCNC[C@H]1O` | -39.14 | 3.773 | 12.68 | 2.782 |
| 44 | `CN1CC(=O)N(c2cccc(F)c2)CC12CCN(Cc1ccncc1)C2` (centres unmarked) | - | -3.51 | 20.35 | - |
| 45 | `CC(CC(=O)Nc1ncn(CC(=O)N2CCCCCC2)n1)C1CC1` (centres unmarked) | -1.816 | 6.607 | 18.97 | 4.744 |
| 46 | `CN(C)c1ccnc(C2CCCN2)n1` (centres unmarked) | - | 1.627 | 7.042 | - |
| 47 | `Cc1nc(C(=O)N2CCC3(CC2)CC(=O)N(CC2CCCO2)C3)cs1` (centres unmarked) | -10.14 | 0 | 3.333 | -2.296 |
| 48 | `CC(=O)N1CC2(CCN(S(=O)(=O)N(C)C)CC2)C2(CCNC2=O)C1` (centres unmarked) | -21.63 | 7.617 | 15.53 | -21.92 |
| 49 | `CN(C)c1cc(CNC(=O)c2n[nH]c(=O)c3ccccc23)ccn1` | - | -0.02709 | 2.655 | -6.376 |
| 50 | `CCO[C@@H]1C[C@H]2CN(Cc3ccc(C)o3)CCN2C1` | - | 3.84 | 15.15 | - |
| 51 | `Cc1cc(C(=O)NCc2cccn2C)nn1C` | - | -1.918 | 12.5 | 1.66 |
| 52 | `CCN1C[C@H]2CCN(C(=O)NC)CC[C@H]2S1(=O)=O` | - | 1.949 | 25.64 | - |
| 53 | `COc1cc2c(cc1CNCc1cccnc1OC)OC(C)C2` (centres unmarked) | -39.56 | 1.317 | 11.11 | -41.91 |
| 54 | `Fc1ccc(OCCNC2CCN(Cc3ccncc3)CC2)c(F)c1` | 4.715 | -3.4 | 22.45 | 20.58 |
| 55 | `O=C(O)C(F)(F)F.[H][C@@]12COC[C@]1(COCC(=O)N(C)C)CN(C1CCCC1)C2` | -63.87 | - | - | -23.73 |
| 56 | `COCCN(Cc1ccoc1)S(=O)(=O)c1ccc(OC)c(Cl)c1` | -20.85 | -3.082 | 4.878 | 6.979 |
| 57 | `CN(C)C(=O)N1CCn2nc(CNC(=O)CCc3ccccn3)cc2C1` | -34.11 | 1.847 | 17.81 | -4.762 |
| 58 | `CN1CCc2c(C#N)c(NCC3CCCO3)n3cnnc3c2C1` (centres unmarked) | - | 3.637 | 15.79 | - |
| 59 | `O=C(O)C(F)(F)F.O=C(O)c1cc(NS(=O)(=O)c2ccc(Cl)s2)ccc1N1CCOCC1` | -8.94 | - | - | 13.16 |
| 60 | `CCCC(C)NCc1cnc(-c2cccc(C)c2)nc1` (centres unmarked) | -122.5 | 4.268 | 15 | 1.082 |
| 61 | `Cc1cc(OCC(=O)N2CCCC(c3ccn[nH]3)C2)no1` (centres unmarked) | 7.289 | 5.587 | 9.459 | 6.933 |
| 62 | `CN(CC(F)(F)F)C(=O)c1ccc(F)c(NS(C)(=O)=O)c1` | -42.23 | 4.423 | 25.71 | 1.582 |
| 63 | `O=C(O)C(F)(F)F.[H][C@@]12COC[C@]1(COCC(=O)N1CCCC1)CN(C1CCC1)C2` | -24.53 | - | - | -30.05 |
| 64 | `[H][C@@]12CCN(C(=O)c3ccccc3)[C@]1([H])C(=O)N(c1ccc(F)cc1)C(=O)N2` | -3.832 | - | - | 10.42 |
| 65 | `CCn1cc(NC(=O)c2cccc(CN3C[C@@H](C)O[C@@H](C)C3)c2)nn1` | -16.52 | 1.147 | 10.85 | -2.282 |

The first 6 entries again:

- N[C@H]1CN(CCCOc2ccccc2)C[C@@H]1C1CC1 : T. brucei: 47.52%; PfKRS1: 3.445%; LiHisRS: 6.452%; Toxoplasma: -4.669%
- N#Cc1ccsc1N1CCC(Sc2ccncc2)C1=O (centres unmarked) : T. brucei: -22.65%; PfKRS1: 6.894%; LiHisRS: 53.06%; Toxoplasma: 14.58%
- Cn1c(CC(=O)O)c(Sc2ccccc2)c2ccccc21 : T. brucei: -17.57%; PfKRS1: 4.738%; LiHisRS: -56.04%; Toxoplasma: -5.072%
- O=C([C@H](O)c1ccccc1)N1CCN(c2cccc(Cl)c2)C(=O)C1 : T. brucei: -6.966%; PfKRS1: 1.651%; LiHisRS: 13.21%; Toxoplasma: 0.6734%
- CCn1ncc2c(C(F)F)cc(-c3ccn(C)n3)nc21 : T. brucei: -2.55%; PfKRS1: 4.101%; LiHisRS: 10.34%; Toxoplasma: 14.34%
- Cc1ccc(N2CCC3(CC2)COCCN(c2nccs2)C3)nn1.O=C(O)C(F)(F)F.O=C(O)C(F)(F)F : T. brucei: -12.93%; Toxoplasma: -24.36%

Measurements from “University of Dundee, Small-Polar-MMV Screening Library” (2021), ChEMBL document CHEMBL3988442.